The target in this assay is T1, his-Hth (Homothorax) (Drosophila) (UniProt O46339).
T1 sequence: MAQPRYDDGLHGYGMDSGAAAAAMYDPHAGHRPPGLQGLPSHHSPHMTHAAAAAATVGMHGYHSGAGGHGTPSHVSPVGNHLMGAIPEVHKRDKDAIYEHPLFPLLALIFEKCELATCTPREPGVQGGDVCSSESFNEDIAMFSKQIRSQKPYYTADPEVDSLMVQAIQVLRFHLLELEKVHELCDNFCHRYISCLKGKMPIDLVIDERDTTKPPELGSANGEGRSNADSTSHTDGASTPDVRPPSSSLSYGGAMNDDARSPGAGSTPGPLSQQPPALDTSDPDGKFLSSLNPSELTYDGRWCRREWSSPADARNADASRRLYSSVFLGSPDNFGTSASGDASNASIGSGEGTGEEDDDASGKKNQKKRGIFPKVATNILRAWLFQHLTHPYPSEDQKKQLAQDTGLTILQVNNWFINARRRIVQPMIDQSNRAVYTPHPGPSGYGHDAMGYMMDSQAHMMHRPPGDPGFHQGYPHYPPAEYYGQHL
As to the kind of experiment: condition: 200 nM Hth; Abd-A 37.5 nM to 300 nM; on the DCRE DNA probe; native gel or EMSA; complex formation on the radiolabelled DCRE full-length DNA probe (0.36 uM), native polyacrylamide gel; Hox protein titrated 37.5 nM to 300 nM with a fixed amount of Exd/Hth heterodimer (25 or 75 nM), DNA-binding deficient heterodimer (200 nM), Exd alone or Hth alone (200 nM); both purified.

Sequences of proteins named here, by UniProt entry; tags and fusion partners are left off.
UniProt P29555: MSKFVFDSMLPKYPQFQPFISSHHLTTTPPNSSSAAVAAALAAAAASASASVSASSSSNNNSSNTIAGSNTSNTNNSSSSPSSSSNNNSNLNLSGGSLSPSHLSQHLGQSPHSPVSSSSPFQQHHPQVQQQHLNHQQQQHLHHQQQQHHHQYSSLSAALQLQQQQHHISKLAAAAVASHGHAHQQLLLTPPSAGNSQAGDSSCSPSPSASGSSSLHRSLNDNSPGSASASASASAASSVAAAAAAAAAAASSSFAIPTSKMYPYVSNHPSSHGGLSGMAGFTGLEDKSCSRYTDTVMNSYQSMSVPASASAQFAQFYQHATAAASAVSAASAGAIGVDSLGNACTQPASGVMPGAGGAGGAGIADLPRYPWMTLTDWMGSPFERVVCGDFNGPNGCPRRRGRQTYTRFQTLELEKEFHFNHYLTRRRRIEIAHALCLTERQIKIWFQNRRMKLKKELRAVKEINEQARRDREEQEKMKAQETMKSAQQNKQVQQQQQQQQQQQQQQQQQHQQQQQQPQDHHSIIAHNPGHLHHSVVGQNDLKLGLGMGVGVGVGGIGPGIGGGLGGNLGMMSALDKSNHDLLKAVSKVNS

One substance from PMC4825978 can be followed below.

These are yes or no findings as the source states them, for the method shown. Tags and fused reporters may be left off the sequences shown.

On to “His-tagged Abd-A (Abdominal-A) (from UniProt P29555 1-590)”, for which the binding entry is recorded as “no binding”.
